In publication PMC7935953, “Insights on autophagosome–lysosome tethering from structural and biochemical characterization of human autophagy factor EPG5” (Communications Biology, 2021):
No constants are given. Whether binding was seen depends on the method and setting. Some binding calls cover weakened binding; strength is not graded here.

By UniProt entry, the sequences of proteins in these tests, tags left out. Where a name states a change or a piece, a line headed by the entry shows the natural chain unless it says otherwise. Residues count along the entry.
UniProt Q9BXW4, residues 1-126: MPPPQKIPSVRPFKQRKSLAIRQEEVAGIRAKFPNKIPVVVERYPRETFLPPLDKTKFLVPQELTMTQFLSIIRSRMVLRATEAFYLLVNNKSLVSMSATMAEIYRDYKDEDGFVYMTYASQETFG
UniProt Q9HCE0: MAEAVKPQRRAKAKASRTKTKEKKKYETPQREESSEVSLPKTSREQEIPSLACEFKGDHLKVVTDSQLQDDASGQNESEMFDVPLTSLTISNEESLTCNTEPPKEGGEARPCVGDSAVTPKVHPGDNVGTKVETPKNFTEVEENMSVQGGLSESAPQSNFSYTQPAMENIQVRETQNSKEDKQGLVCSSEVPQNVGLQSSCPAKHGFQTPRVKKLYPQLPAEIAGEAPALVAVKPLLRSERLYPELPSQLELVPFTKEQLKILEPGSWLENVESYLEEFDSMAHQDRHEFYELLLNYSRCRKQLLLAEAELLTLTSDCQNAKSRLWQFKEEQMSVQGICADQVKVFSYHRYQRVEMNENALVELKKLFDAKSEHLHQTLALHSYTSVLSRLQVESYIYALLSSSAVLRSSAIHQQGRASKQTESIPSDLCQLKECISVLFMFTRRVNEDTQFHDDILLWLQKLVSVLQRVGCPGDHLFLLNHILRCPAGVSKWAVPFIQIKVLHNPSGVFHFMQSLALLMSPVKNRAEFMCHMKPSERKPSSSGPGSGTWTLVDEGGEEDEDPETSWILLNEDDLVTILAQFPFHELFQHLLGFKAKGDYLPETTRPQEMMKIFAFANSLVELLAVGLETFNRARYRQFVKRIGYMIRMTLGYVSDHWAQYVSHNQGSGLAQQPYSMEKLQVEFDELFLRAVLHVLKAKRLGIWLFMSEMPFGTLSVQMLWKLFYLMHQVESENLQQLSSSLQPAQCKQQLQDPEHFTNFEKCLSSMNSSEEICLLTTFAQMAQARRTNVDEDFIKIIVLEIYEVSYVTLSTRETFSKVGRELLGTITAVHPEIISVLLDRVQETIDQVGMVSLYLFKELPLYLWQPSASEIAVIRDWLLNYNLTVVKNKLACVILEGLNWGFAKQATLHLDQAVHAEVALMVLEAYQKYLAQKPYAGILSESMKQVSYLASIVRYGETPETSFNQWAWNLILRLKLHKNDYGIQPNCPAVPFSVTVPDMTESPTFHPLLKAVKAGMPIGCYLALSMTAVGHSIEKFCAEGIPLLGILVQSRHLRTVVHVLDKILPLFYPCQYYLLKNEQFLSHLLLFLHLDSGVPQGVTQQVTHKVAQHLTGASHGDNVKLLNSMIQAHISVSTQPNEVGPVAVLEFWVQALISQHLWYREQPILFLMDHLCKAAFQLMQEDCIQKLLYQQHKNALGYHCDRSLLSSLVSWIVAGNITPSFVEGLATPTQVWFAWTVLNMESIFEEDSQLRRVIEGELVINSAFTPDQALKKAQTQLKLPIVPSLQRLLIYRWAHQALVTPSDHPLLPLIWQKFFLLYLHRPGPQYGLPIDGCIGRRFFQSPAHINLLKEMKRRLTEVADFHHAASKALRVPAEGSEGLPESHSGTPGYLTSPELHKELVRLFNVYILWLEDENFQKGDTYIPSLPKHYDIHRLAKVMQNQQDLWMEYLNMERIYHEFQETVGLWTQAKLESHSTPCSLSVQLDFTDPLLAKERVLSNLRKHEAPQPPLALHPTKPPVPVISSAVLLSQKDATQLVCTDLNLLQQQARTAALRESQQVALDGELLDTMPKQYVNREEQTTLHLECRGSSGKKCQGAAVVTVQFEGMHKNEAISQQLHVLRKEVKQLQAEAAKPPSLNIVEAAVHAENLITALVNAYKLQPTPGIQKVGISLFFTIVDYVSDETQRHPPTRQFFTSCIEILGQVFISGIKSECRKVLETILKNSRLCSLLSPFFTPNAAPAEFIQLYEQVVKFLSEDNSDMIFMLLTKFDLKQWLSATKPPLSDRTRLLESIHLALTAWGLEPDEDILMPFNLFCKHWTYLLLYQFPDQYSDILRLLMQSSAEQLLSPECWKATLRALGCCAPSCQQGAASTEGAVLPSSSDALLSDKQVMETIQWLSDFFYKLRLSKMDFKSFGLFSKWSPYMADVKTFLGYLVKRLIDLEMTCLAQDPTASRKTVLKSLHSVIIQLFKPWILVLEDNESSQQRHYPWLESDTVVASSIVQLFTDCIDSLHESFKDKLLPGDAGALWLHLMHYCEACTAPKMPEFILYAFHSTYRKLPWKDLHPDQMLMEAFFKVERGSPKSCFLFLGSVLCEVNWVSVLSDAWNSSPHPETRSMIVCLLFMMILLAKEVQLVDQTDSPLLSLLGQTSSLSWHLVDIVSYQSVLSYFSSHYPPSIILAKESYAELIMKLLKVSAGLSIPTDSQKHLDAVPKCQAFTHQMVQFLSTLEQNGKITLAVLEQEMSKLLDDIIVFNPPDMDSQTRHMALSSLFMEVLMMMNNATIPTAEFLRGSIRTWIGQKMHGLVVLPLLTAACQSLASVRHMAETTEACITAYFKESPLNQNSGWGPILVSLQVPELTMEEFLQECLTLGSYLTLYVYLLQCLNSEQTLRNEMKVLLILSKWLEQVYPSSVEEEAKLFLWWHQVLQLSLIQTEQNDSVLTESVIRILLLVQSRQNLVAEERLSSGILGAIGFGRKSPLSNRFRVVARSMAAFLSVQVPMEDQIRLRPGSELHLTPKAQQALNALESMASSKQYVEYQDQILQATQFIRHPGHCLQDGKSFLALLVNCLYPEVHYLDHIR
UniProt O95166: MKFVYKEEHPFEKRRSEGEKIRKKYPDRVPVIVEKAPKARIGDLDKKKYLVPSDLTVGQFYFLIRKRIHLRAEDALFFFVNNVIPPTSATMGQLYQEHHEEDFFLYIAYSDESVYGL

What was measured:
GST-LC3C (human) = GST-LC3C (human) (UniProt Q9BXW4); test: pull-down; GST pull-down: purified GST-LC3A/B/C or GST-GABARAP/L1/L2 bait (200–240 µg) on glutathione resin, purified His-FLAG-hEPG5 or mutant (25–30 µg) as prey; 50 mM Tris pH 8.0, 150 mM NaCl, 5% glycerol, 0.01% Tween20, 0.5 mM DTT, 4 °C; anti-FLAG fluorescence western blot; both purified
hEPG5^Q336R (human) = hEPG5^Q336R (human) (UniProt Q9HCE0); test: negative stain electron microscopy; purified hEPG5 from the glycerol gradient peak fraction, uranyl formate stain, raw images and 2D class averages; both purified
GST-GABARAP (human) = GST-GABARAP (human) (UniProt O95166); test: pull-down; GST pull-down: purified GST-LC3A/B/C or GST-GABARAP/L1/L2 bait (200–240 µg) on glutathione resin, purified His-FLAG-hEPG5 or mutant (25–30 µg) as prey; 50 mM Tris pH 8.0, 150 mM NaCl, 5% glycerol, 0.01% Tween20, 0.5 mM DTT, 4 °C; anti-FLAG fluorescence western blot; both purified

| Substance | binding (GST-LC3C (human)) | binding (hEPG5^Q336R (human)) | binding (GST-GABARAP (human)) |
| --- | --- | --- | --- |
| His-FLAG-hEPG5 (human EPG5, full length, wild type) (from UniProt Q9HCE0 1-2579) | binds | – | – |
| hEPG5^Q336R (from UniProt Q9HCE0 1-2579) | binds | no binding | – |
| hEPG5^W550A/W567A (from UniProt Q9HCE0 1-2579) | – | – | no binding (tested: 25–30 µg hEPG5 on 200–240 µg bait) |
